Source: paper PMC9643332 (Bioorganic Chemistry, 2022)

Target: SARS-CoV-2 3CL^pro (Severe acute respiratory syndrome coronavirus 2, UniProt P0DTD1)
Assay type: biochemical

Question: How did the “inhibition of protease activity in primary screening” value turn out when `CCCCCCCCCCCCCCCC[n+]1ccccc1` [Cetylpyridinium chloride monohydrate] was run?
Answer: significantly inhibit
